Laboratory results as given in PubChem BioAssay AID1688 (National Center for Advancing Translational Sciences (NCATS), 2009).
About 2,400 (1.1%) of roughly 220,000 compounds were called active. Inconclusive results, whose numbers are uncertain, are shown with a selection of clear calls. The call rests on the fitted dose curve; in most records, active means well fitted inhibition curve with a large enough effect; inconclusive means small, poorly fitted or top-dose-only effect, or effect the other way; inactive means no such curve, though single readings can be large or run the other way. Potencies beside an inconclusive call are fits to weak or partial responses and may not hold up.

Test: qHTS Multiplex Assay to Identify Dual Action Probes in a Cell Model of Huntington: Aggregate Formation (GFP); further: nearly all actives have a fitted effect of over 60% in size
Details: PC12 HttQ103-GFP aggregates, Acumen cytometry, 40 h; activity change, negative = inhibition: at 46.1 µM (top of the series) unless noted
Outline: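 Compounds (qHTS titration) were added to PC12 cells expressing an ecdysone-driven HTT exon 1 Q103–GFP fusion after induction with 100 nM tebufenozide. Aggregate formation was measured as GFP objects in cell lysates.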
On the % scale 0 is the no-effect control and ±100 the full control effect; potency means the concentration at half of the fitted maximal effect.

Row | SMILES | Potency | activity change, negative = inhibition
1 | O=C(Nc1nc(N2C(=O)c3ccccc3C2=O)n(-c2ccccc2)n1)c1ccc(Cl)cc1 | inconclusive: 35.5 µM [inhibitor, single point] | –
2 | CCc1ccc(OCC(=O)N/N=C(\C)c2ccc(-n3ccnc3)cc2)cc1 | inconclusive: 35.5 µM [activator, single point] | –
3 | CCOc1nc(OCC)nc(N2CCC(C)CC2)n1 | – | inactive: 11.9%
4 | O=C(c1ccc(Cn2cc(Br)cn2)cc1)N1N=C(C(F)F)CC1(O)C(F)F (stereo unspecified) | – | inactive: 5.39%
5 | O=C(COc1ccccc1Br)NCc1ccccn1 | – | inactive: -3.04%
6 | CCc1ccc(NS(=O)(=O)c2ccc(OC)c(C)c2)cc1 | inconclusive: 11.2 µM [inhibitor, partial curve] | –
7 | O=C(CCCSc1nc2ccccc2[nH]1)N1CCN(c2ccc([N+](=O)[O-])cc2)CC1 | inconclusive: 3.16 µM [inhibitor, single point] | –
8 | c1ccc(Sc2cnc3ccccc3n2)cc1 | inconclusive: 5.62 µM [inhibitor, partial curve] | –
9 | O=[N+]([O-])c1ccc(Cl)cc1Sc1nc2ccccc2o1 | inconclusive: 15.8 µM [activator, single point] | –
10 | CC(C)CCSc1nc(N)c(C#N)cc1C#N | active: 22.4 µM | –
11 | COc1ccc(Cn2c(SCc3ccc(C)cc3)nc3cc(OC)c(OC)cc3c2=N)cc1Cl | inconclusive: 28.2 µM [inhibitor, single point] | –
12 | CCCCn1c(=O)[nH]c(=O)c2c(C(=O)OCC)cc(-c3ccc(OC(F)F)cc3)nc21 | inconclusive: 0.891 µM [activator, partial curve] | –
13 | O=C(CSc1nc(-c2ccc(F)cc2)nc2ccc(F)cc12)Nc1cccc(C(=O)O)c1 | inconclusive: 12.6 µM [activator, partial curve] | –
14 | CC(=O)Nc1cccc(C(=O)OCc2ccc([N+](=O)[O-])cc2)c1 | inconclusive: 6.31 µM [activator, partial curve, poor fit] | –
15 | O=C(N/N=C/c1cn(-c2cccs2)nc1-c1ccccc1)c1ccc(O)cc1 | inconclusive: 35.5 µM [inhibitor, single point] | –
16 | COc1ccc(Br)cc1/C=C/C(=O)c1ccc(NC(C)=O)cc1 | inconclusive: 35.5 µM [inhibitor, single point] | –
17 | COc1cccc(-c2nn(-c3ccccc3)cc2CN(C)Cc2c(C)nc3ccccn23)c1 | – | inactive: 2.77% [at 9.22 µM]
18 | O=C(NN1C(=O)C2C3C=CC(O3)C2C1=O)c1cccc(O)c1 (stereo unspecified) | – | inactive: 2.24%
19 | CN(CCc1ccccn1)c1ncnc2[nH]ncc12 | inconclusive: 14.1 µM [inhibitor, partial curve] | –
20 | Cc1ccc(NC(=O)C(=O)c2c(-c3ccccc3)cc3ccccn23)cc1S(=O)(=O)N1CCOCC1 | inconclusive: 2.51 µM [inhibitor, single point] | –
21 | Cn1cc(/C=C2\SC(=S)N(NC(=O)c3ccccc3Cl)C2=O)c2ccccc21 | inconclusive: 3.55 µM [activator, partial curve] | –
22 | O=C(CN(CC1CCCO1)S(=O)(=O)c1ccc(S(=O)(=O)NCC2CCCO2)cc1)Nc1ccccc1 (stereo unspecified) | – | inactive: 31.6%
23 | Cc1sc2ncnc(NCC3CCCO3)c2c1C (stereo unspecified) | inconclusive: 25.1 µM [inhibitor, single point] | –
24 | COC(=O)/C=C/c1ccc(OC(=O)OC)c(OC(=O)OC)c1 | inconclusive: 0.0282 µM [inhibitor, full curve, poor fit] | –

Row | SMILES | Potency | activity change, negative = inhibition
25 | S=C1NC[C@H](c2ccccc2)N1CCCCC1CCCCC1 | – | inactive: -5.95% [at 9.22 µM]
26 | Brc1ccc(/C=N/Nc2ccccc2)cc1 | – | inactive: 4.88%
27 | NC(=O)C1CCN(CC(=O)Nc2ccccn2)CC1 | active: 2.24 µM | –
28 | CCCCCCn1nc(C(=O)OCC(=O)c2c(N)n(C)c(=O)n(C)c2=O)c2ccccc2c1=O | inconclusive: 14.1 µM [inhibitor, single point] | –
29 | O=[N+]([O-])c1cc(C(F)(F)F)ccc1Sc1ccc2ccccc2n1 | – | inactive: -3.51%
30 | COc1ccc(CNC(=O)CN(C(=O)Cn2nnc(-c3ccccc3F)n2)c2ccc(C)cc2)cc1 | – | inactive: 7.2% [at 9.22 µM]
31 | Cc1ccc(S(=O)(=O)/N=C2/C=C(Sc3ncn[nH]3)C(=O)c3ccccc32)c(C)c1 | active: 5.01 µM | –
32 | CCN(CC)S(=O)(=O)c1cccc(C(=O)N/N=C/c2ccc([N+](=O)[O-])o2)c1 | inconclusive: 35.5 µM [inhibitor, single point] | –
33 | Cc1onc(-c2ccccc2)c1C(=O)N1CCCSC1=Nc1ccccc1 | inconclusive: 35.5 µM [inhibitor, single point] | –
34 | COc1ccc2c(c1)CC/C(=C\C=C\c1ccccc1)C2=O | inconclusive: 35.5 µM [inhibitor, single point] | –
35 | COCC(C)n1c(C)cc(C(=O)CSc2nc3ccccc3c(=O)[nH]2)c1C (stereo unspecified) | inconclusive: 14.1 µM [inhibitor, single point] | –
36 | c1ccc2c(c1)oc1c(N3CCN(Cc4ccc5c(c4)OCO5)CC3)ncnc12 | inconclusive: 25.1 µM [inhibitor, single point] | –
37 | COc1ccc(C(=O)Cn2c(Br)nc3c2c(=O)n(C)c(=O)n3C)cc1 | inconclusive: 0.562 µM [inhibitor, full curve, poor fit] | –
38 | COc1ccc(NC(=O)C2=C(C)Nc3nc(CCCO)nn3C2c2ccc(OC)c(OC)c2)cc1 (stereo unspecified) | inconclusive: 0.562 µM [activator, partial curve, poor fit] | –
39 | CCN(CC)C(=O)CSCc1cnn(-c2ccccc2)c1-n1cccc1 | inconclusive: 25.1 µM [inhibitor, single point] | –
40 | Cc1ccc(S(=O)(=O)NC(=O)c2ccccc2)cc1C(C)C | inconclusive: 3.16 µM [activator, single point] | –
41 | COc1ccc(-c2noc(C3CCCN(C(=O)c4ccccc4OC)C3)n2)cc1OC (stereo unspecified) | inconclusive: 11.2 µM [inhibitor, single point] | –
42 | Oc1ccc(Br)cc1-c1nc2cnccn2c1NC1CCCC1 | active: 20 µM | –
43 | Cc1ncc(CO)c(/C=N/NC(=O)c2cc(O)c(O)c(O)c2)c1O | – | inactive: 8.38%
44 | CCC(NC(=O)Nn1cnnc1)(C(F)(F)F)C(F)(F)F | – | inactive: -1%
45 | CCCS(=O)(=O)c1nnnn1-c1cccc(OC)c1 | active: 3.55 µM | –
46 | O=S(=O)(NCCOCC(F)(F)F)c1ccc2oc3ccccc3c2c1 | inconclusive: 14.1 µM [inhibitor, single point] | –
47 | COc1ccc(-n2cnc3ccccc32)cc1 | active: 14.1 µM | –
48 | CC(NC(=S)NCCc1ccccc1)C(c1cccs1)N1CCN(C)CC1 (stereo unspecified) | inconclusive: 10 µM [inhibitor, partial curve] | –

Copied from above: compounds 31 to 45
Row | SMILES | Potency | activity change, negative = inhibition
31 | Cc1ccc(S(=O)(=O)/N=C2/C=C(Sc3ncn[nH]3)C(=O)c3ccccc32)c(C)c1 | active: 5.01 µM | –
32 | CCN(CC)S(=O)(=O)c1cccc(C(=O)N/N=C/c2ccc([N+](=O)[O-])o2)c1 | inconclusive: 35.5 µM [inhibitor, single point] | –
33 | Cc1onc(-c2ccccc2)c1C(=O)N1CCCSC1=Nc1ccccc1 | inconclusive: 35.5 µM [inhibitor, single point] | –
34 | COc1ccc2c(c1)CC/C(=C\C=C\c1ccccc1)C2=O | inconclusive: 35.5 µM [inhibitor, single point] | –
35 | COCC(C)n1c(C)cc(C(=O)CSc2nc3ccccc3c(=O)[nH]2)c1C (stereo unspecified) | inconclusive: 14.1 µM [inhibitor, single point] | –
36 | c1ccc2c(c1)oc1c(N3CCN(Cc4ccc5c(c4)OCO5)CC3)ncnc12 | inconclusive: 25.1 µM [inhibitor, single point] | –
37 | COc1ccc(C(=O)Cn2c(Br)nc3c2c(=O)n(C)c(=O)n3C)cc1 | inconclusive: 0.562 µM [inhibitor, full curve, poor fit] | –
38 | COc1ccc(NC(=O)C2=C(C)Nc3nc(CCCO)nn3C2c2ccc(OC)c(OC)c2)cc1 (stereo unspecified) | inconclusive: 0.562 µM [activator, partial curve, poor fit] | –
39 | CCN(CC)C(=O)CSCc1cnn(-c2ccccc2)c1-n1cccc1 | inconclusive: 25.1 µM [inhibitor, single point] | –
40 | Cc1ccc(S(=O)(=O)NC(=O)c2ccccc2)cc1C(C)C | inconclusive: 3.16 µM [activator, single point] | –
41 | COc1ccc(-c2noc(C3CCCN(C(=O)c4ccccc4OC)C3)n2)cc1OC (stereo unspecified) | inconclusive: 11.2 µM [inhibitor, single point] | –
42 | Oc1ccc(Br)cc1-c1nc2cnccn2c1NC1CCCC1 | active: 20 µM | –
43 | Cc1ncc(CO)c(/C=N/NC(=O)c2cc(O)c(O)c(O)c2)c1O | – | inactive: 8.38%
44 | CCC(NC(=O)Nn1cnnc1)(C(F)(F)F)C(F)(F)F | – | inactive: -1%
45 | CCCS(=O)(=O)c1nnnn1-c1cccc(OC)c1 | active: 3.55 µM | –

The listing continues.

Row | SMILES | Potency | activity change, negative = inhibition
49 | CC(NS(=O)(=O)c1ccccc1)C(c1cccs1)N1CCN(c2ccccc2)CC1 (stereo unspecified) | inconclusive: 14.1 µM [inhibitor, partial curve] | –
50 | CCCNC1=C(N(C(C)=O)c2cccc(F)c2)C(=O)c2ccccc2C1=O | active: 11.2 µM | –
51 | CC(C(=O)NCc1ccccc1)N1C(=O)C2CC=C(Cl)CC2C1=O (stereo unspecified) | inconclusive: 2.82 µM [inhibitor, partial curve] | –
52 | Nc1ccc2oc(-c3ccccc3Cl)cc(=O)c2c1O | inconclusive: 2.82 µM [activator, full curve] | –
53 | O=c1ncn(-c2ccc(F)cc2)c2ncccc12 | – | inactive: 8.74%
54 | O=C(Nc1nccs1)C1CCCN1S(=O)(=O)c1ccc(F)cc1 (stereo unspecified) | inconclusive: 1.26 µM [inhibitor, single point] | –
55 | COc1ccc(/C=C/C(=O)Nc2ccc(-c3nnc4n3CCCCC4)cc2)c(OC)c1 | inconclusive: 5.62 µM [inhibitor, single point] | –
56 | CCn1cc(C(=O)NCCOC)c(=O)c2ccc(C)nc21 | – | inactive: -2.32%
57 | CCCCn1c(SCC(=O)NCc2ccco2)nnc1-c1ccco1 | – | inactive: 15.6%
58 | CCOc1ccccc1N1CCN(C(=S)NCc2ccc(Cl)cc2)CC1 | inconclusive: 3.16 µM [inhibitor, single point] | –
59 | Cc1ccc(CNCC(O)(c2ccc(F)cc2)c2ccc(F)cc2)cc1 | inconclusive: 10 µM [inhibitor, single point] | –
60 | CC1CCC(C(C)C)C(OP(=O)(c2ccc(N(C)C)cc2)C(O)c2cccnc2)C1 (stereo unspecified) | – | inactive: 1.88%
61 | O=[N+]([O-])c1ccc(N2CCCCC2)cc1 | – | inactive: -4.53% [at 9.22 µM]
62 | CCN(c1cccc(C)c1)S(=O)(=O)c1cnc[nH]1 | inconclusive: 35.5 µM [activator, single point] | –
63 | Cc1ccc(NCc2ccccc2)cc1 | inconclusive: 5.62 µM [activator, single point] | –
64 | O=C(/C=C\c1ccco1)Nc1cc([N+](=O)[O-])ccc1F | inconclusive: 3.98 µM [inhibitor, single point] | –
65 | CC(C)CNC(=O)c1cccc(NC(=O)C(C)C)c1 | – | inactive: -10%
66 | CC(=O)c1ccc(OCC(C)C)c(CN2CCCCC2)c1 | inconclusive: 35.5 µM [inhibitor, single point] | –
67 | CCCCCCc1cc2cc(-c3nnc(-c4ccccc4O)o3)c(=O)oc2cc1O | inconclusive: 3.55 µM [inhibitor, full curve] | –
68 | CC1Cc2ccccc2N1C(=O)CSc1nnc(NC(=O)Cc2cccs2)s1 (stereo unspecified) | – | inactive: 0.421%
69 | c1cncc(-c2csc(NCc3ccco3)n2)c1 | – | inactive: -15.8%
70 | CCOC(=O)c1c(-c2ccccc2)csc1NC(=O)CSc1nc(C)cc(C)n1 | inconclusive: 12.6 µM [inhibitor, single point] | –
71 | COc1ccc(-c2cc(C(F)(F)F)n3ncc(C(=O)NCC4CCCO4)c3n2)cc1OC (stereo unspecified) | inconclusive: 0.316 µM [activator, full curve, poor fit] | –
